Source: paper PMC11496107
Positions count from the first letter of the chain named. Names may count otherwise. These are yes or no findings as the source states them, for the method shown. Some binding calls cover weakened binding; strength is not graded here. Sequences can lack the tags named with a protein.

The chains behind the UniProt entries cited, without tags or fusion partners. Residues count along the entry.
UniProt Q15788, residues 570-780: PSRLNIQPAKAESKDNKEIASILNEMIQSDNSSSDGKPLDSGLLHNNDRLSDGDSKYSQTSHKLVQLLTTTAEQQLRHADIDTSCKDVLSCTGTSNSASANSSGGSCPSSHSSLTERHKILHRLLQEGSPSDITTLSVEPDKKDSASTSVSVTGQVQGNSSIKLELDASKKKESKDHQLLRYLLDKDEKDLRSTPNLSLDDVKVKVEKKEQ

B1: LXRα-VP16 (wild-type liver X receptor-α fused to VP16) (receptor, UniProt Q13133-1 1-447)
chain: MSLWLGAPVPDIPPDSAVELWKPGAQDASSQAQGGSSCILREEARMPHSAGGTAGVGLEAAEPTALLTRAEPPSEPTEIRPQKRKKGPAPKMLGNELCSVCGDKASGFHYNVLSCEGCKGFFRRSVIKGAHYICHSGGHCPMDTYMRRKCQECRLRKCRQAGMREECVLSEEQIRLKKLKRQEEEQAHATSLPPRASSPPQILPQLSPEQLGMIEKLVAAQQQCNRRSFSDRLRVTPWPMAPDPHSREARQQRFAHFTELAIVSVQEIVDFAKQLPGFLQLSREDQIALLKTSAIEVMLLETSRRYNPGSESITFLKDFSYNREDFAKAGLQVEFINPIFEFSRAMNELQLNDAEFALLIAISIFSADRPNVQDQLQVERLQHTYVEALHAYVSIHHPHDRLMFPRMLMKLVSLRTLSSVHSEQVFALRLQDKKLPPLLSEIWDVHE
B2: LXRα-VP16 p.M346V (receptor, UniProt Q13133-1 1-447)
chain: B1 chain with M346V
B3: LXRα-VP16 p.L217P (receptor, UniProt Q13133-1 1-447)
chain: B1 chain with L217P

biological target: Gal4-SRC1 (aa 570-780) (UniProt Q15788); test: two-hybrid; mammalian two-hybrid in HEK293 cells: LXRα-VP16 with Gal4-SRC1 (aa 570-780) or Gal4-NCoR (ID 1 + 2) and a UAS-TK-Luc reporter; increasing doses of T0901317 for 20 h; firefly/Renilla luciferase as % of WT

binding	Binder
binds	B1
binds	B2
binds	B3
